This passage reports binding results from publication PMC9816786.

By UniProt entry, the sequences of proteins in these tests, tags left out. Where a name states a change or a piece, a line headed by the entry shows the natural chain unless it says otherwise.
UniProt Q01518: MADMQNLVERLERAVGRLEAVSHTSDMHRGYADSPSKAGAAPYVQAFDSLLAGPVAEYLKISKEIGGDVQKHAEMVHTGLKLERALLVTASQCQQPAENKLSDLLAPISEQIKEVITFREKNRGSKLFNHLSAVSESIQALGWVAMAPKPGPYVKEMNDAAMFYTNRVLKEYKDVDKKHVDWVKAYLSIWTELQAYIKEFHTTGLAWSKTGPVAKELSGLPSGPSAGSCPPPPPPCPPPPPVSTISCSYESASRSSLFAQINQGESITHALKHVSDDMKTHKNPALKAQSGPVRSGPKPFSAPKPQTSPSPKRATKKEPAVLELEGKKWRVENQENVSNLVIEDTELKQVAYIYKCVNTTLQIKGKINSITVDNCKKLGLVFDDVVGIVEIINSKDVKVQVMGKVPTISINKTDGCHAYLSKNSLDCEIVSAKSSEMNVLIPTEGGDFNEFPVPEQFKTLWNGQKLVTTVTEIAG
UniProt Q8NBP7: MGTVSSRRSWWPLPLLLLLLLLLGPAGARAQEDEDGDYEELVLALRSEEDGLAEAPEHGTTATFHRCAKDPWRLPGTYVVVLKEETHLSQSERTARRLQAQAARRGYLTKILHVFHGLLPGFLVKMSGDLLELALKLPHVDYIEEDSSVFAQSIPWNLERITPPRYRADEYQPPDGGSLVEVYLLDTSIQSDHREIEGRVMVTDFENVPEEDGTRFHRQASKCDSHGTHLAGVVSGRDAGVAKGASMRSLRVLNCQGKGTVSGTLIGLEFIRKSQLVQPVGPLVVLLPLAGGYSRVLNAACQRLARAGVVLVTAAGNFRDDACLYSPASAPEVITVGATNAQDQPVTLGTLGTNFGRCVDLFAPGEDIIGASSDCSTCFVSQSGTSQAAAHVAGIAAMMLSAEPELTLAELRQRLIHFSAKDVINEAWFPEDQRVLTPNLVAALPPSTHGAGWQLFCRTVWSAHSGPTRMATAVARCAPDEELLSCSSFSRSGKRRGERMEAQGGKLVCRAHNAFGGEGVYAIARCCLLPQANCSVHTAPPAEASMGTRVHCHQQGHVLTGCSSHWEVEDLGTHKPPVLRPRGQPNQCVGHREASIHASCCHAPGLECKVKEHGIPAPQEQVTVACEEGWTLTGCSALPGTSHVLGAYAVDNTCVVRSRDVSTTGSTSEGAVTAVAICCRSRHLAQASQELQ

No constants are given. Whether binding was seen depends on the method and setting. Binding seen in cells or lysates may run through a third protein. A result given as binding can be weak or reduced; the word gives no strength.

This assay has as its target HA-tagged CAP1 (human) (UniProt Q01518). The assay can be described thus: co-IP; PCSK9 or PCSK9-Δ33-58 and HA-tagged CAP1 expressed in HepG2 PCSK9−/− cells; serum free medium precipitated with HA-coupled agarose beads; blots with anti-CAP1 and anti-PCSK9.

On to PCSK9-Δ33-58 (from UniProt Q8NBP7), for which the binding entry was “binds”.
Then “V5-tagged PCSK9 (PCSK9-WT, pIRES2-EGFP-hPCSK9-WT-V5) (from UniProt Q8NBP7)”, with “binds”.
